# Experimental data reported in the supplement of paper PMC6411743.
# Sequences of proteins named here, by UniProt entry; tags and fusion partners are left off. A change or cut given only in a name is not applied to a line headed by its entry.
# UniProt Q9HBH0: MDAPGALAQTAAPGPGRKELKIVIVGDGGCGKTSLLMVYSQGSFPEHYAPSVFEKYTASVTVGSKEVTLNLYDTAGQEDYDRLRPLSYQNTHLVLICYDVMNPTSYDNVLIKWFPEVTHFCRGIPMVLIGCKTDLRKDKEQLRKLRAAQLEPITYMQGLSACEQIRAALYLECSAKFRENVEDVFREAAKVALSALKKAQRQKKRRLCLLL
# UniProt Q9HA64: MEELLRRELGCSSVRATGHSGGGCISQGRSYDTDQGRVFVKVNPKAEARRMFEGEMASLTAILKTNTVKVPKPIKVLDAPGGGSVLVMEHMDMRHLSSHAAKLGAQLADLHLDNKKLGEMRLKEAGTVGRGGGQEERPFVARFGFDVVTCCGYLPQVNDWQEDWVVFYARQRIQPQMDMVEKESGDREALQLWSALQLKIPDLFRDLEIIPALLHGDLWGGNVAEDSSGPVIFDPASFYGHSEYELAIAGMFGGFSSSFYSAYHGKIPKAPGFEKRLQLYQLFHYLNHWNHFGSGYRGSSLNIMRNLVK
# UniProt Q9H9B4: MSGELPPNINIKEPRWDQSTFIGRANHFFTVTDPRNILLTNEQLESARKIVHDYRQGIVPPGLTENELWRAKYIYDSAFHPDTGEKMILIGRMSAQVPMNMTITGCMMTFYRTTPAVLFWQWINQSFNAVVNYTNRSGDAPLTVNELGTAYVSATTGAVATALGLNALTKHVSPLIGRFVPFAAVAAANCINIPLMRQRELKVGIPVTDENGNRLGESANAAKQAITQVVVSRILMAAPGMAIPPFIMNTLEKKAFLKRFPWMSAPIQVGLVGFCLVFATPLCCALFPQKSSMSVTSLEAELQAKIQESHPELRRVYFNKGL
# UniProt Q9NQW6: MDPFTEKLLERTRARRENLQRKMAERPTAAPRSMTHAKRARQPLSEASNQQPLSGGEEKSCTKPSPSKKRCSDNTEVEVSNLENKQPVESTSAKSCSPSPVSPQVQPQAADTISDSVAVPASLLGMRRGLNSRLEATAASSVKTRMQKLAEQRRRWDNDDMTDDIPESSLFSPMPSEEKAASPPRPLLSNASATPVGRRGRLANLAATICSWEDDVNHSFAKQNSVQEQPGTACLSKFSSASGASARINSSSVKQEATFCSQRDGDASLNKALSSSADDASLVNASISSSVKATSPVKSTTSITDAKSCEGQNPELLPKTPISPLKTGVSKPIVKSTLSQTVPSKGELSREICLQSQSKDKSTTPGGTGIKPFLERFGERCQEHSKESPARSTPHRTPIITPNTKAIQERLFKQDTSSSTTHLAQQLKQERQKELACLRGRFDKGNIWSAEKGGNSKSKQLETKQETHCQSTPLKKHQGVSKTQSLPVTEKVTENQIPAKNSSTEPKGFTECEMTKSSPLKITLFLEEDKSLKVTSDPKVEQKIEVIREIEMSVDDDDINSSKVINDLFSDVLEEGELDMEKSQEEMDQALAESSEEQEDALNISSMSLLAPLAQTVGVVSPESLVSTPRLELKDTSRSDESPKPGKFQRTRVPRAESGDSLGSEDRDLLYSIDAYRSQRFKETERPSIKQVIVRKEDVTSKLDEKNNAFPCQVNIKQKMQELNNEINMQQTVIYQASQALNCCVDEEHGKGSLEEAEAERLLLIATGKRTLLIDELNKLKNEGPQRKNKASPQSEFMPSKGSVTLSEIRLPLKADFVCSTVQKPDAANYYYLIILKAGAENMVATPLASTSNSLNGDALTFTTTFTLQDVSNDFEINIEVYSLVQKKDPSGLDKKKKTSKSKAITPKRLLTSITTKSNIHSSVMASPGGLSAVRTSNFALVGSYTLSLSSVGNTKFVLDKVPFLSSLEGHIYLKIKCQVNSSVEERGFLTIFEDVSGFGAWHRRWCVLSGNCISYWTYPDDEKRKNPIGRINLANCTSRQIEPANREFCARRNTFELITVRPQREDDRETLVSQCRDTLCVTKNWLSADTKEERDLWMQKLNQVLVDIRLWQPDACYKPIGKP
# UniProt Q9NPD3, whole entry: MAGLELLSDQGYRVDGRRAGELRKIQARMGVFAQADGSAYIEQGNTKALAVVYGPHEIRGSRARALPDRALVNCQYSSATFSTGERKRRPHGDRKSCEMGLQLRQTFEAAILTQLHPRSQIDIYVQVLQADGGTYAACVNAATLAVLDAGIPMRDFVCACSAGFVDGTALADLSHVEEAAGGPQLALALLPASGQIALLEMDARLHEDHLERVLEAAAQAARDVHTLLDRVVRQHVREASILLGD
# UniProt Q9NR28: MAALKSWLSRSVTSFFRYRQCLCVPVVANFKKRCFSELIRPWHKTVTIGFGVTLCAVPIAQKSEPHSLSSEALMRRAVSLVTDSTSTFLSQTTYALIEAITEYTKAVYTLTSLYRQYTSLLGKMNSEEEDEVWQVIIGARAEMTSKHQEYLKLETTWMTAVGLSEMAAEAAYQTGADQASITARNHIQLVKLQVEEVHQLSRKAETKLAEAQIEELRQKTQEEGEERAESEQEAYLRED
# UniProt Q9H3K6: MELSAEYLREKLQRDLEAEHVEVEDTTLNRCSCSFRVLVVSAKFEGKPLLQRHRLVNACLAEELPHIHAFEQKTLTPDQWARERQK
# UniProt Q9NQT8: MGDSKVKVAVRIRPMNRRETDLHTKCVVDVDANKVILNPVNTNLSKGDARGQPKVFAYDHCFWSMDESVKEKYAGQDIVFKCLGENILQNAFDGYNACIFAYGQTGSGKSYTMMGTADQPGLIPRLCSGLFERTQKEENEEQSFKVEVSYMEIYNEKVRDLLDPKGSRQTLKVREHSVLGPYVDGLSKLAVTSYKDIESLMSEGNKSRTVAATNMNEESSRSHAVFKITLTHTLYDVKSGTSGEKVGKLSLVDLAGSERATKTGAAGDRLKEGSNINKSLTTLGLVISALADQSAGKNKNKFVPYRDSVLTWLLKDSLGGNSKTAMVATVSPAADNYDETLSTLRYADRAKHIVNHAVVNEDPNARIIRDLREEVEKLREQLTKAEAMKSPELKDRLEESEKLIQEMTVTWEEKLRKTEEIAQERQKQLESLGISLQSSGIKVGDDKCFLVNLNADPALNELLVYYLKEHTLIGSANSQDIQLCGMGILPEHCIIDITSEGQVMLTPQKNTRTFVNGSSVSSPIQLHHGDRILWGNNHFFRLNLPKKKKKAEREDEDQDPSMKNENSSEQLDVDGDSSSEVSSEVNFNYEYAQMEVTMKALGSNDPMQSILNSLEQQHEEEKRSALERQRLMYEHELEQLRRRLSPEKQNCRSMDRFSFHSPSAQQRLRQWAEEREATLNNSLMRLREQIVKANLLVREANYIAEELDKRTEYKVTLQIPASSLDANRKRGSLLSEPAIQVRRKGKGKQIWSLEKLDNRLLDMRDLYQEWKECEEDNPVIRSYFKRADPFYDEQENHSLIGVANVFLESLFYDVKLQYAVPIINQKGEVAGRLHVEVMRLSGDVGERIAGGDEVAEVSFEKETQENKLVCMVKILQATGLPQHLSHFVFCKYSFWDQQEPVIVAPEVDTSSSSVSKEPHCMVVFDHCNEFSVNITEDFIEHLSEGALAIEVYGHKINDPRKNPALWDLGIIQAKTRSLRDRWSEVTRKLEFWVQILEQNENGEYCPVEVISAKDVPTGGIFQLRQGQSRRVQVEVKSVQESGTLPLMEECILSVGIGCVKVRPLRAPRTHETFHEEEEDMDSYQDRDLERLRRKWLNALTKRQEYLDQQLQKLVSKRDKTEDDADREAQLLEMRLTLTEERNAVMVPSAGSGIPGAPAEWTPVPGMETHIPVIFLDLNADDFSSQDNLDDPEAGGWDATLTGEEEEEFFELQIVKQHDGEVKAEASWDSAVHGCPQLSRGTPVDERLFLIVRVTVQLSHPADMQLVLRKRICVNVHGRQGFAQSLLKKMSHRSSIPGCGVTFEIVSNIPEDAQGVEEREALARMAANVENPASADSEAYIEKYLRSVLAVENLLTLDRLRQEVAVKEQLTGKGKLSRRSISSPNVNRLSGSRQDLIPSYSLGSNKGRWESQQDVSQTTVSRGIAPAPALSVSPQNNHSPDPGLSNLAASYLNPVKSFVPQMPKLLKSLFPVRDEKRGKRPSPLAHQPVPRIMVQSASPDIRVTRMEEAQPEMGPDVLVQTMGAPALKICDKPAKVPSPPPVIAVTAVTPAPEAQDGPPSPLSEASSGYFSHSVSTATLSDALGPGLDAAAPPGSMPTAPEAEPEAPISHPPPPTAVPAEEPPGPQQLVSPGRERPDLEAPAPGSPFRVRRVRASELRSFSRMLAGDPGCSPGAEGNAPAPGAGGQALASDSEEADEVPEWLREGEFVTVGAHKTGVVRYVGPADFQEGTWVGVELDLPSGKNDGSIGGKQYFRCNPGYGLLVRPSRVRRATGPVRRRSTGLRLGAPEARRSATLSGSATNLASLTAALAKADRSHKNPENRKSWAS
# UniProt Q9NPG3, whole entry: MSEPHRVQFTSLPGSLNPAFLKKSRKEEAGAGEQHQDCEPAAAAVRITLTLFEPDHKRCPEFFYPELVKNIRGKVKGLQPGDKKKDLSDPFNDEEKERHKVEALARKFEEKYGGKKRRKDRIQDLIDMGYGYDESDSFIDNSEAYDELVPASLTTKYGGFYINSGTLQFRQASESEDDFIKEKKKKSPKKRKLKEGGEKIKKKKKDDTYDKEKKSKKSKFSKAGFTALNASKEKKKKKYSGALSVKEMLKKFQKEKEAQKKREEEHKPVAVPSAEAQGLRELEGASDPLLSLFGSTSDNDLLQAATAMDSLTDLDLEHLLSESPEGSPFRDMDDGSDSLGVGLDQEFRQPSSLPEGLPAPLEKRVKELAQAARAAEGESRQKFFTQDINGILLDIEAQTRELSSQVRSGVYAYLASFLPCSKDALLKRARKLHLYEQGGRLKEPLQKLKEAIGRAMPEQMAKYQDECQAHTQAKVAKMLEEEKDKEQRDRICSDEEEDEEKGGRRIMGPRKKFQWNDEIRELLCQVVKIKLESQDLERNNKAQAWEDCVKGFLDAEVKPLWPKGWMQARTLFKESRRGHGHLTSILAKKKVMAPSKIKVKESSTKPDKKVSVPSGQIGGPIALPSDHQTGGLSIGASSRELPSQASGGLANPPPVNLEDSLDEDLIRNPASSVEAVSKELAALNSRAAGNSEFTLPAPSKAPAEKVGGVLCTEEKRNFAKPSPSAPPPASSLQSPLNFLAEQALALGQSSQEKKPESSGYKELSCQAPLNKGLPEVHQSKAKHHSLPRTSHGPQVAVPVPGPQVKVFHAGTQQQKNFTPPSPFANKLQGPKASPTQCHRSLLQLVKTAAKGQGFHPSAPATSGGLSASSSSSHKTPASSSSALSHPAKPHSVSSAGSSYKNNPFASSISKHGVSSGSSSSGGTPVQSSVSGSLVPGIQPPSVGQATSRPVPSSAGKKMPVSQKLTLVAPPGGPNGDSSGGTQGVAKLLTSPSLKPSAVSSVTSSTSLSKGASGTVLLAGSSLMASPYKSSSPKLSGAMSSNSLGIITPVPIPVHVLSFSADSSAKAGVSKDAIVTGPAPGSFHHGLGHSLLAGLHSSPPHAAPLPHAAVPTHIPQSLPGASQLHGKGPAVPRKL
# UniProt Q9BZL1: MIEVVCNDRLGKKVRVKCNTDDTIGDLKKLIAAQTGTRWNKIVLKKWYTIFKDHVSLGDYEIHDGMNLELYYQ
# UniProt Q9NRX1: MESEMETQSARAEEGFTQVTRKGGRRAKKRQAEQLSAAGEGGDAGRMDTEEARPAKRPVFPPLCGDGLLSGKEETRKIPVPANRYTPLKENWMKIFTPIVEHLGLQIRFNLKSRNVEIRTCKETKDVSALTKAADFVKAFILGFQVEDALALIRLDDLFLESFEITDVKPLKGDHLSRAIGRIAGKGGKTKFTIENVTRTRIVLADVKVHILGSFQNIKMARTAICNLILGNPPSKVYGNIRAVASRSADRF
# UniProt Q9HDC5: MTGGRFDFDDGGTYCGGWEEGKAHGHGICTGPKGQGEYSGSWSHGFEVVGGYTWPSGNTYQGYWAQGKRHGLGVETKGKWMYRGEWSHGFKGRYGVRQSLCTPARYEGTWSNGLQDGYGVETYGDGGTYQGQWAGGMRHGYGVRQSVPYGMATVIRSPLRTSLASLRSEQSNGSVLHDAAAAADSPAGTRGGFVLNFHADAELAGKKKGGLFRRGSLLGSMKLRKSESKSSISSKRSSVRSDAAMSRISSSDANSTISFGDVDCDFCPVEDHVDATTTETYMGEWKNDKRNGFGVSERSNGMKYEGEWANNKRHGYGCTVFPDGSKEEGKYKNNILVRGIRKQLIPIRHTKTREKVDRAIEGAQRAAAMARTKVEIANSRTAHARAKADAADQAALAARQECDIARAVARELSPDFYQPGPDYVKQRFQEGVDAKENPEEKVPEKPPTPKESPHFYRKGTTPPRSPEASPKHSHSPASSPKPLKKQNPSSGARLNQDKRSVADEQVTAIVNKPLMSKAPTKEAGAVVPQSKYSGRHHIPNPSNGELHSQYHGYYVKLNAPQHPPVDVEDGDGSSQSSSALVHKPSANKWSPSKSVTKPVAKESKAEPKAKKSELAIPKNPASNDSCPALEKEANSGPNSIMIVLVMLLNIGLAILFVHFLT
# ± gives the standard deviation of the averaged measurements. The list shows a part of the results.
# Compound: Nc1nc2c(ncn2[C@@H]2O[C@H](COP(=O)(O)OP(=O)(O)OP(=O)(O)O)[C@@H](O)[C@H]2O)c(=O)[nH]1 [guanosine triphosphate]
# Assay: NP40-soluble protein abundance relative to vehicle (solubility fold change) (ratio); higher = more soluble protein in presence of GTP
# Details: concentration: 4mM
# Summary of the method: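 Across three independent experiments, values are fold changes against the detergent-processed vehicle for each replicate, based on vsn-normalised intensities. The samples were Jurkat crude lysate treated with eight concentrations (0.1 to 10 mM) for 10 min at room temperature and then 3 min at 37 °C. Lysate was solubilised with 0.8% NP40 and benzonase, ultracentrifuged, and the supernatant analysed by TMT-labelled LC-MS/MS.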
row,Target,NP40-soluble protein abundance
1,RHOF (UniProt Q9HBH0),1.08 ± 0.025
2,MRPL44 (UniProt Q9H9J2),1.35 ± 0.31
3,FN3KRP (UniProt Q9HA64),0.905 ± 0.042
4,SFXN1 (UniProt Q9H9B4),0.916 ± 0.11
5,ANLN (UniProt Q9NQW6),0.925 ± 0.061
6,EXOSC4 (UniProt Q9NPD3),1.12 ± 0.023
7,UniProt Q9C035 and related entries,1.02 ± 0.06
8,MRPL40 (UniProt Q9NQ50),1.47 ± 0.35
9,CENPH (UniProt Q9H3R5),0.942 ± 0.034
10,UniProt Q9NR28 and related entries,0.976 ± 0.059
11,UniProt Q9C0I1 and related entries,1.07 ± 0.082
12,UniProt Q9H8E8 and related entries,1.01 ± 0.14
13,SCAF1 (UniProt Q9H7N4),1.25 ± 0.038
14,BOLA2 (UniProt Q9H3K6),0.97 ± 0.07
15,UniProt Q9NPL8,0.958 ± 0.015
16,NCOA5 (UniProt Q9HCD5),1.58 ± 0.053
17,UniProt Q9H7Z6,1.131 ± 0.0091
18,KIF13B (UniProt Q9NQT8),1.03 ± 0.032

row,Target,NP40-soluble protein abundance
1,WDR11 (UniProt Q9BZH6),1.03 ± 0.19
2,PNN (UniProt Q9H307),1.1 ± 0.25
3,LSG1 (UniProt Q9H089),1.05 ± 0.052
4,UniProt Q9C0E8 and related entries,0.887 ± 0.085
5,YTHDC2 (UniProt Q9H6S0),1.27 ± 0.19
6,UniProt Q9NPG3 and related entries,1.1 ± 0.059
7,DEF6 (UniProt Q9H4E7),0.909 ± 0.081
8,UniProt Q9BZL1,1.05 ± 0.16
9,PNO1 (UniProt Q9NRX1),1.09 ± 0.27
10,UniProt Q9H0F6 and related entries,0.983 ± 0.21
11,UniProt Q9H3H3-2|Q9H3H3-3|Q9H3H3,0.959 ± 0.063
12,UniProt Q9H6U6 and related entries,0.974 ± 0.038
13,UniProt Q9NQ88,0.833 ± 0.093
14,KIF15 (UniProt Q9NS87),0.94 ± 0.043
15,JPH1 (UniProt Q9HDC5),1.18 ± 0.18
16,UniProt Q9HC38-2|F6TLX2,0.863 ± 0.09
17,MOV10 (UniProt Q9HCE1),1.22 ± 0.25
18,UniProt Q9C0F1,1.01 ± 0.04

# Same assay, conditions: concentration: 6mM
row,Target,NP40-soluble protein abundance
1,RHOF (UniProt Q9HBH0),1.01 ± 0.087
2,MRPL44 (UniProt Q9H9J2),1.33 ± 0.35
3,FN3KRP (UniProt Q9HA64),0.884 ± 0.031
4,SFXN1 (UniProt Q9H9B4),0.918 ± 0.075
5,ANLN (UniProt Q9NQW6),0.957 ± 0.076
6,EXOSC4 (UniProt Q9NPD3),1.12 ± 0.095
7,UniProt Q9C035 and related entries,1.02 ± 0.017
8,MRPL40 (UniProt Q9NQ50),1.42 ± 0.37
9,CENPH (UniProt Q9H3R5),1.05 ± 0.045
10,UniProt Q9NR28 and related entries,0.96 ± 0.068
11,UniProt Q9C0I1 and related entries,0.96 ± 0.089
12,UniProt Q9H8E8 and related entries,1.08 ± 0.091
13,SCAF1 (UniProt Q9H7N4),1.31 ± 0.049
14,BOLA2 (UniProt Q9H3K6),0.848 ± 0.072
15,UniProt Q9NPL8,0.956 ± 0.011
16,NCOA5 (UniProt Q9HCD5),1.81 ± 0.059
17,UniProt Q9H7Z6,1.12 ± 0.04
18,KIF13B (UniProt Q9NQT8),0.992 ± 0.018

row,Target,NP40-soluble protein abundance
1,WDR11 (UniProt Q9BZH6),1.07 ± 0.14
2,PNN (UniProt Q9H307),0.942 ± 0.22
3,LSG1 (UniProt Q9H089),1.06 ± 0.077
4,UniProt Q9C0E8 and related entries,0.983 ± 0.14
5,YTHDC2 (UniProt Q9H6S0),1.28 ± 0.19
6,UniProt Q9NPG3 and related entries,1.1 ± 0.033
7,DEF6 (UniProt Q9H4E7),0.919 ± 0.077
8,UniProt Q9BZL1,1.06 ± 0.11
9,PNO1 (UniProt Q9NRX1),1.09 ± 0.3
10,UniProt Q9H0F6 and related entries,0.976 ± 0.26
11,UniProt Q9H3H3-2|Q9H3H3-3|Q9H3H3,0.934 ± 0.057
12,UniProt Q9H6U6 and related entries,0.919 ± 0.022
13,UniProt Q9NQ88,0.831 ± 0.093
14,KIF15 (UniProt Q9NS87),0.951 ± 0.034
15,JPH1 (UniProt Q9HDC5),1.13 ± 0.2
16,UniProt Q9HC38-2|F6TLX2,0.862 ± 0.076
17,MOV10 (UniProt Q9HCE1),1.21 ± 0.26
18,UniProt Q9C0F1,0.991 ± 0.091
